{"sequences": {"note": "Chains of the proteins cited; added tags and fusions are not shown. Lines headed by an entry give the natural chain unless they say otherwise; changes in a name come on top.", "UniProt Q9UNA4": "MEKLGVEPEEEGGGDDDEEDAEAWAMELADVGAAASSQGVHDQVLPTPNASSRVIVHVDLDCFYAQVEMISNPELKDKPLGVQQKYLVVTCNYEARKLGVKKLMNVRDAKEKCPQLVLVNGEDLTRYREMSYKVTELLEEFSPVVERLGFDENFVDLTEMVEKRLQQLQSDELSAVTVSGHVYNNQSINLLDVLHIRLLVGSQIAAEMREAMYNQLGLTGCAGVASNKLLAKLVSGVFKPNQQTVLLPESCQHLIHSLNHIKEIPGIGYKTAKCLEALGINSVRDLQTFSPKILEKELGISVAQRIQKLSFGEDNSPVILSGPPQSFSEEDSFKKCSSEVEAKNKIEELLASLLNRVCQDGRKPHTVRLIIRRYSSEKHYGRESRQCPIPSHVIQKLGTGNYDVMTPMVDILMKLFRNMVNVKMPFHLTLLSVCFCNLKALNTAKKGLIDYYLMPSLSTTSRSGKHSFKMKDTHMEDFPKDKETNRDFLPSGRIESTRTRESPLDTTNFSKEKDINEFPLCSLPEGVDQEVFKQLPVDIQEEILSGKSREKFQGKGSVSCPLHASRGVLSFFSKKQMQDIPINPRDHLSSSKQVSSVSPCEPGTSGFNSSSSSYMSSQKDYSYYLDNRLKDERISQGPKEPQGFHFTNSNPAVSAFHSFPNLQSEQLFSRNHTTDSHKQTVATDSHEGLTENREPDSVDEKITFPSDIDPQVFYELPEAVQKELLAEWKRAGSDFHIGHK"}, "source": "PubChem BioAssay AID588590", "about": "(National Center for Advancing Translational Sciences (NCATS), 2011)", "note": "Values joined by “and” are separate entries in the source; they are usually repeats but may differ in a detail not shown here. Identical values can stand only once. The campaign covered roughly 390,000 compounds. About 4,000 (1%) were called active. The inconclusive results got no clear call from the source; some entries with a clear call stand among them for comparison. The call rests on the fitted dose curve; in most records, active means well fitted inhibition curve with a large enough effect; inconclusive means small, poorly fitted or top-dose-only effect, or another doubt; inactive means no such curve, though single readings can be large or run the other way. A potency beside an inconclusive call is a rough fit, not a confirmed value. Potency means the concentration at half of the fitted maximal effect."}
{"biological_target": "DNA polymerase iota (Homo sapiens) (UniProt Q9UNA4)", "assay": "qHTS for Inhibitors of Polymerase Iota", "conditions": "Pol iota fluorescent replication assay, 10 min; series mostly up to 115 µM", "method_in_brief": "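Pol iota at 10 nM preincubated 15 min with compounds at room temperature; reaction started with fluorescent substrate, 50 nM final. Fluorescence read kinetically at 0 and 10 min; buffer-only wells as negative control.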"}
{"compound": "Nc1[nH]n2c(=O)cc(-c3ccccc3)nc2c1N=Nc1ccccc1", "Potency": "inactive"}
{"compound": "COc1ccc(-c2nc(CS(=O)CC(=O)NCCc3ccccc3)c(C)o2)cc1OC", "note": "(stereo not given)", "Potency": "inconclusive: 39.8 µM [inhibitor, single point]"}
{"compound": "CC1CCc2nc3ccc(S(=O)(=O)N4CCC(C(=O)N5CCCCC5)CC4)cc3c(C(=O)O)c2C1", "note": "(stereo not given)", "Potency": "inactive"}
{"compound": "CC1=C(C(=O)OCc2ccccc2)N2C(=O)[C@@H](NC(=O)OCc3ccccc3)[C@H]2SC1", "Potency": "inactive"}
{"compound": "COc1ccc(C(=O)Nc2ccc3nc4c(c(Nc5ccc(OC)c(OC)c5)c3c2)CCCC4)c(OC)c1", "Potency": "inconclusive: 12.6 µM [inhibitor, full curve, poor fit]"}
{"compound": "CCc1noc(C)c1C(=O)N1CCN(S(=O)(=O)c2ccc(C(C)C)cc2)CC1", "Potency": "inconclusive: 89.1 µM [inhibitor, partial curve, poor fit]"}
{"compound": "CCCSc1oc(-c2ccco2)nc1S(=O)(=O)c1ccc(Br)cc1", "Potency": "inconclusive: 79.4 µM [inhibitor, single point]"}
{"compound": "COCCCNC(=O)Cn1nc(N2CCN(c3ccccc3)CC2)ccc1=O", "Potency": "inactive"}
{"compound": "CCN1C(=O)[C@H]2[C@@H](c3ccc(-c4cccc(Cl)c4)c(OC)c3)N[C@@](C)(C(=O)OC)[C@H]2C1=O", "Potency": "inconclusive: 28.2 µM [inhibitor, partial curve, poor fit]"}
{"compound": "COC(=O)c1cc(-c2ccc(C)o2)nc2ccccc12", "Potency": "inconclusive: 89.1 µM [inhibitor, single point]"}
{"compound": "N/C(=N\\OC(=O)c1ccco1)c1ccc(Br)cc1", "Potency": "inconclusive: 39.8 µM [inhibitor, single point]"}
{"compound": "O=C(COc1ccccc1Cl)Nc1nnc(S(=O)(=O)N2CCCC2)s1", "Potency": "inconclusive: 25.1 µM [inhibitor, full curve, poor fit]"}
{"compound": "COc1ccc(S(=O)(=O)N[C@@H](CC(C)C)C(=O)O)cc1", "Potency": "inconclusive: 112 µM [inhibitor, partial curve, poor fit]"}
{"compound": "CCOc1ccccc1NC(=O)C(CC(C)C)NC(=O)C1CCC(C)CC1", "note": "(stereo not given)", "Potency": "inconclusive: 89.1 µM [inhibitor, single point]"}
{"compound": "COc1ccc(OC)c(S(=O)(=O)N(C)CC(=O)Nc2cc(Cl)ccc2OC)c1", "Potency": "inconclusive: 100 µM [inhibitor, partial curve, poor fit]"}
{"compound": "NC(=O)COC(=O)c1cc(=O)[nH]c2ccccc12", "Potency": "inactive"}
{"compound": "COc1cccc2sc(NC(=O)CS(=O)(=O)c3ccc(C)cc3)nc12", "Potency": "inconclusive: 3.16 µM [inhibitor, partial curve, poor fit]"}
{"compound": "Cc1cnccn1", "Potency": "inactive"}
{"compound": "CCN1CC2([N+](=O)[O-])C=CC(=O)C([N+](=O)[O-])(C1)C2CC(=O)c1ccccc1", "note": "(stereo not given)", "Potency": "inconclusive: 28.2 µM [inhibitor, partial curve, poor fit]"}
{"compound": "C/C(Cn1nc([N+](=O)[O-])cc1C)=N\\NC(=O)c1ccc(O)cc1O", "Potency": "inconclusive: 1.78 µM [inhibitor, full curve, poor fit]"}
{"compound": "CCc1ccc(CNC(=O)C2CCCN(c3nn4c(=O)cc(C)nc4s3)C2)cc1", "note": "(stereo not given)", "Potency": "inactive"}
{"compound": "CN(C)CCOc1nc(-c2ccccc2)nc2c1oc1ccccc12", "Potency": "inconclusive: 14.1 µM [inhibitor, partial curve, poor fit]"}
{"compound": "COCc1cc(C)nc2sc(C(=O)N3CCCC3)c(N)c12", "Potency": "inconclusive: 79.4 µM [inhibitor, partial curve]"}
{"compound": "Oc1cc(NCCN2CCOCC2)cc2cccnc12", "Potency": "active: 7.08 µM"}
{"compound": "C1=Cc2ccccc2/C1=C\\c1cccc(/C=C2\\C=Cc3ccccc32)c1", "Potency": "inconclusive: 31.6 µM [inhibitor, full curve]"}
{"compound": "Cc1ccc(C(=O)NCCN2C3=NC[C@H](Cc4ccc(O)cc4)N3C[C@H]2Cc2ccc(O)cc2)cc1Br", "Potency": "inconclusive: 44.7 µM [inhibitor, partial curve, poor fit]"}
{"compound": "O=c1cc(NC2CCCCC2)[nH]c(=O)[nH]1", "Potency": "inconclusive: 35.5 µM [inhibitor, partial curve, poor fit]"}
{"compound": "Cc1c(Cl)cccc1NC(=S)N1CCN(c2ccccn2)CC1", "Potency": "inactive"}
{"compound": "Cc1ccc(S(=O)(=O)N2CCCCC2C(=O)Nc2nncs2)cc1", "note": "(stereo not given)", "Potency": "inconclusive: 7.08 µM [inhibitor, partial curve]"}
{"compound": "Cc1ccc(NC(=O)CN2C(=O)CCc3ccccc32)cc1C", "Potency": "inconclusive: 56.2 µM [inhibitor, partial curve, poor fit]"}
{"compound": "CC(=O)Nc1sc2c(c1C#N)CCC(C)C2", "note": "(stereo not given)", "Potency": "inconclusive: 89.1 µM [inhibitor, single point]"}
{"compound": "CCOc1ccc(CNC(=S)N/N=C/c2ccncc2)cc1", "Potency": "inconclusive: 28.2 µM [inhibitor, full curve, poor fit]"}
{"compound": "O=C(O)c1cc2c(cn1)[nH]c1ccccc12", "Potency": "inconclusive: 11.2 µM [inhibitor, partial curve]"}
{"compound": "COC(=O)c1ccccc1NC(=O)CSc1nnc(C(CO)NC(=O)c2ccccc2)n1C", "note": "(stereo not given)", "Potency": "inconclusive: 89.1 µM [inhibitor, single point]"}
{"compound": "NS(=O)(=O)c1cccc(NC(=S)NC(=O)C23CC4CC(CC(C4)C2)C3)c1", "Potency": "inactive"}
{"compound": "CC[N+](CC)(CC)CCCCOc1ccc2c(c1)C(=O)c1cc(OCCCC[N+](CC)(CC)CC)ccc1-2", "Potency": "inconclusive: 31.6 µM [inhibitor, partial curve, poor fit]"}
{"compound": "Cc1ccc(CS(=O)(=O)c2ncc(Cl)c(C(=O)Nc3nnc(C(C)C)s3)n2)cc1", "Potency": "inconclusive: 17.8 µM [inhibitor, full curve, poor fit] and inconclusive: 25.1 µM [inhibitor, partial curve, poor fit]"}
{"compound": "O=C(Cn1nnc(-c2ccccc2)n1)N/N=C/c1cccc([N+](=O)[O-])c1O", "Potency": "inconclusive: 22.4 µM [inhibitor, partial curve, poor fit]"}
{"compound": "CC(C)CCN1C(=O)c2ccc(C(=O)Nc3ccc(Br)cc3C(=O)O)cc2C1=O", "Potency": "inconclusive: 63.1 µM [inhibitor, partial curve, poor fit]"}
{"compound": "COc1ccc(/C(O)=C2/C(=O)C(=O)N(CCCN3CCOCC3)C2c2ccc(C)cc2)cc1", "note": "(stereo not given)", "Potency": "inactive"}
